{"source": "PubChem BioAssay AID504764 (Drosophila RNAi Screening Center, 2011)", "test": "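Genes whose knock-down alters Notch-dependent transcription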 (primary screen)", "system": "Drosophila Kc167 cells", "reagents": "long dsRNA against Drosophila genes", "time to read-out": "about 5 days (4 days dsRNA, then 24 h after transfection)", "treatment": "transfection of constitutively active membrane-tethered Notch lacking the extracellular domain, read 24 h later", "measurement": "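Light from a Notch-responsive E(spl)m3 luciferase reporter under active Notch, with control-promoter and no-Notch reporter wells to normalise; raw counts from paired wells a and b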", "direction": "induced reporter light, run 1, well a and induced reporter light, run 1, well b: higher = more light from the Notch target reporter with active Notch; control promoter light, run 1, well a and control promoter light, run 1, well b: higher = more light from the viral control promoter (cell number, transfection, viability); uninduced reporter light, run 1, well a: higher = more light from the Notch target reporter without active Notch", "rule for the call": "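Wells with low control signal or poorly matching duplicates excluded; duplicates averaged; per source plate, z beyond ±2 for induced/control log2 ratio or beyond ±1.8 for induced/uninduced marks a hit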", "meaning of the calls": "active = modifier hit (raised or lowered Notch signal); inactive = not a hit", "note": "The screen tested about 22,000 reagents; shown is an unselected part of those with a known target gene and a result. Over the whole deposit, 403 (1.9%) were called active. 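Unnormalised raw counts per well; ratio z-scores behind the hit calls and whether each hit raises or lowers signal are not deposited.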 A number with no mark means an inactive call. Not given: the amount of reagent."}
{"Gene":"Golgin97 (Golgin 97)","amplicon":"DRSC06895","induced reporter light, run 1, well a":2.26e5,"induced reporter light, run 1, well b":1.49e5,"control promoter light, run 1, well a":2.21e5,"control promoter light, run 1, well b":1.63e5,"uninduced reporter light, run 1, well a":15470}
{"Gene":"CG15629","amplicon":"DRSC00464","induced reporter light, run 1, well a":1.04e5,"induced reporter light, run 1, well b":91695,"control promoter light, run 1, well a":88285,"control promoter light, run 1, well b":87410,"uninduced reporter light, run 1, well a":6915}
{"Gene":"Cpr62Bc (Cuticular protein 62Bc)","amplicon":"DRSC08545","induced reporter light, run 1, well a":75330,"induced reporter light, run 1, well b":94035,"control promoter light, run 1, well a":1.40e5,"control promoter light, run 1, well b":81660,"uninduced reporter light, run 1, well a":3485}
{"Gene":"CG31102","amplicon":"DRSC14260","induced reporter light, run 1, well a":1.38e5,"induced reporter light, run 1, well b":1.16e5,"control promoter light, run 1, well a":1.66e5,"control promoter light, run 1, well b":1.52e5,"uninduced reporter light, run 1, well a":11670}
{"Gene":"CG14196","amplicon":"DRSC19551","induced reporter light, run 1, well a":89845,"induced reporter light, run 1, well b":1.29e5,"control promoter light, run 1, well a":1.17e5,"control promoter light, run 1, well b":1.18e5,"uninduced reporter light, run 1, well a":11270}
{"Gene":"CG18765","amplicon":"DRSC15392","induced reporter light, run 1, well a":1.10e5,"induced reporter light, run 1, well b":1.09e5,"control promoter light, run 1, well a":1.06e5,"control promoter light, run 1, well b":81620,"uninduced reporter light, run 1, well a":7730}
{"Gene":"ATPsynbeta (ATP synthase, beta subunit)","amplicon":"DRSC17194","induced reporter light, run 1, well a":11675,"induced reporter light, run 1, well b":10990,"control promoter light, run 1, well a":18150,"control promoter light, run 1, well b":21865,"uninduced reporter light, run 1, well a":635}
{"Gene":"psq (pipsqueak)","amplicon":"DRSC07668","induced reporter light, run 1, well a":9165,"induced reporter light, run 1, well b":9345,"control promoter light, run 1, well a":7740,"control promoter light, run 1, well b":6960,"uninduced reporter light, run 1, well a":3480}
{"Gene":"fbp (fructose-1,6-bisphosphatase)","amplicon":"DRSC02077","induced reporter light, run 1, well a":1.95e5,"induced reporter light, run 1, well b":1.88e5,"control promoter light, run 1, well a":1.50e5,"control promoter light, run 1, well b":1.71e5,"uninduced reporter light, run 1, well a":15670}
{"Gene":"Pdha (Pyruvate dehydrogenase E1 alpha subunit)","amplicon":"DRSC18413","induced reporter light, run 1, well a":1.19e5,"induced reporter light, run 1, well b":1.32e5,"control promoter light, run 1, well a":2.58e5,"control promoter light, run 1, well b":2.50e5,"uninduced reporter light, run 1, well a":9730}
{"Gene":"smash (smallish)","amplicon":"DRSC12139","induced reporter light, run 1, well a":1.22e5,"induced reporter light, run 1, well b":1.20e5,"control promoter light, run 1, well a":82100,"control promoter light, run 1, well b":90620,"uninduced reporter light, run 1, well a":9065}
{"Gene":"smash (smallish)","amplicon":"DRSC12239","induced reporter light, run 1, well a":24125,"induced reporter light, run 1, well b":27550,"control promoter light, run 1, well a":29805,"control promoter light, run 1, well b":24730,"uninduced reporter light, run 1, well a":2000}

Targets listed so far whose gene name starts with P or p:
{"Gene":"psq (pipsqueak)","amplicon":"DRSC07668","induced reporter light, run 1, well a":9165,"induced reporter light, run 1, well b":9345,"control promoter light, run 1, well a":7740,"control promoter light, run 1, well b":6960,"uninduced reporter light, run 1, well a":3480}
{"Gene":"Pdha (Pyruvate dehydrogenase E1 alpha subunit)","amplicon":"DRSC18413","induced reporter light, run 1, well a":1.19e5,"induced reporter light, run 1, well b":1.32e5,"control promoter light, run 1, well a":2.58e5,"control promoter light, run 1, well b":2.50e5,"uninduced reporter light, run 1, well a":9730}
